Like-named read-outs stand apart in the source and are kept apart here. Results are given in words; binding and its absence hold for the method and conditions named. In cells and extracts the contact can be indirect. Here binding means that the protein was enriched with, or labelled near, the bait; the list need not be complete. For some of these results: No binding means not detected with the bait. Sequences can lack the tags named with a protein.

What all share (test): affinity purification with mass spectrometry
The target of assay [1] is T1, RNase J with an N-terminal 3×FLAG tag (Synechocystis sp. PCC 6803) (UniProt P54123).
T1 sequence: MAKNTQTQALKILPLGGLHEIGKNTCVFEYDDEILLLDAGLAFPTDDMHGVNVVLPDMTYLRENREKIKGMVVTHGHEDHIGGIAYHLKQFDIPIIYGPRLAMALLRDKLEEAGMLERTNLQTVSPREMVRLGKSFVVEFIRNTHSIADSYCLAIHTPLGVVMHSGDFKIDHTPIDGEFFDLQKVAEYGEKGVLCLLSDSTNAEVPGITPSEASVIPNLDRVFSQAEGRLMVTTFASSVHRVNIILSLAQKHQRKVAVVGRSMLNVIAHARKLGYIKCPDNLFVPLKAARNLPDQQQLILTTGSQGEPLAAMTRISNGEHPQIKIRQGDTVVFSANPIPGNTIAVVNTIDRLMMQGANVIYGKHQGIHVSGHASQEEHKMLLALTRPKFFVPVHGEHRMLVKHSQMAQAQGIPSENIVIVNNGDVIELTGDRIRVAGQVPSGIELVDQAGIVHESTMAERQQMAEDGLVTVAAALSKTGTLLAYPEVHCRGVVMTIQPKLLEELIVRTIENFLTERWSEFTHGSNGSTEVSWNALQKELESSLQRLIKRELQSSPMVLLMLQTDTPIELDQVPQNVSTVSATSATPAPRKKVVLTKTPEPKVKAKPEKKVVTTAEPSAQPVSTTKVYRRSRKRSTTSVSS

Assay [2] addresses T2, RNase J with a C-terminal 3×FLAG tag (Synechocystis sp. PCC 6803) (UniProt P54123).
T2 sequence: T1 sequence

The target of assay [3] is T1, RNase J with an N-terminal 3×FLAG tag (Synechocystis sp. PCC 6803). This is another data set of the same source.
For assay [4], the target named is T2, RNase J with a C-terminal 3×FLAG tag (Synechocystis sp. PCC 6803). The source holds these as a separate data set.

Turning to Slr0552, the binding result in assay [1] and in assay [2] was “binds” throughout.

On to Slr1102, for which the binding result in assay [1] is reported as “binds”. As to “bifunctional nuclease domain protein Sll1142 (from UniProt P73466)”, the binding entry in assay [2] was “binds”. Take pyruvate kinase (enzyme): the binding entry in assay [1] was “binds”.

B1: PNPase (polyribonucleotide nucleotidyltransferase) (enzyme, UniProt P72659 1-718)
chain: MQEFDKSISFDGRDIRLKMGTLAPQAGGSVLIQSGDTAVLVTATRAKGRDGIDFLPLTVDYEGRLYAAGRIPGGFLRREGRPPEKATLISRLIDRPLRPLFPHWLRDELQIVATTLSMDEEVPPDVLAVTGASVAVILAQIPFKGPMAAVRVGLVGDDFIINPTYREVHNGDLDLVVAGTPAGIVMVEAGANQLPEQDIIEAIDFGYEAVQDLINAQRELMTDLGITLATSEPPPVNTAVEEFIANRASKKIITVLGQFDLGKDGRDAALDEIKATEVETAIAELPETDPVKQSVEEDPKLVGNLYKALTKKLMRKQIVDDGVRVDGRKLEQVRPISCEVGFLPRRVHGSGLFNRGLTQVLSLATLGSPGDAQDLADDLHPEDEKRYLHHYNFPPYSVGEARPMRSPGRREIGHGALAERAIIPVLPPQEDFPYVVRVVSEVLSSNGSTSMGSVCGSTLALMDAGVPIKKPVSGAAMGLIKEGDEIRILTDIQGIEDFLGDMDFKVAGTDSGITALQMDMKIDGLSMEVVSKAIMQALPARLHILDKMLATIREPRPELSPFAPRLLTLKIEPEHIGMVIGPGGKTIKGITEQTSCKIDIADDGTVTIASSEGERAERARQMIYNMTRKLNEGEVYLGRVTRIIPIGAFVEVLPGKEGMIHISQLTEGRVGKVEDEVGVGDEVIVKVREIDSKGRLNLTRLGIHPDEAAEARRNASRG
Consider B1, for which the binding result in assay [3] and in assay [4] was “binds” throughout.

B2: TrxA (protein, UniProt P52231 1-107)
chain: MSATPQVSDASFKEDVLDSELPVLVDFWAPWCGPCRMVAPVVDEISQQYEGKVKVVKLNTDENPNTASQYGIRSIPTLMIFKGGQRVDMVVGAVPKTTLASTLEKYL
For B2, the binding entry in assay [4] is “binds”.

B3: RNase E (enzyme, UniProt P72656 1-674)
chain: MPKQIVIAEKHQVAAVFWKDQIQELVVSTGSQQVGDIYLGLVDNILPSIDAAFINIGDTEKNGFIHVSDLGPVRLRRTAGSISELLSPQQRVLVQVMKEPTGNKGPRLTGNISMPGRYMVLMPYGRGVNLSRRINREEERSRLRALAVLIKPPGMGLLVRTEAEDVPEDAIIEDLENLQKQWELVQQQAMTRSAPMLLDRDDDFIKRVLRDMYSSEVNRIVVDTPAGMKRIKQQLMNWDQGRLPEGVLIDCHRESLSILEYFRVNATIREALKPRVDLPSGGYIIIEPTEALTVIDVNSGSFTHSANSRETVLWTNYEAATEIARQLKLRNIGGVIIIDFIDMDSHKDQLQLLEHFNRCLETDKARPQIAQLTELGLVELTRKRQGQNLYELFGQPCPECGGLGHLVELPGEKGFVSLSPTAVNSSIPPRLVEKPILSPPVAKVNDLPKKEEAKISSPLDLLFHPNYQEQGDRDSNRRRRRRRGSEFSEKENIKSVGISRSKGPSPSPTKEKVTGTAPPRRERPSRRVEKTLVPVDVAMTTLEQDIYARMGISPLIKTEYADQDPRSFMVSVVTAGAALEGNTNGSGSLVNAVITTVDNGDNGDNVPSDGLTIVSEVTAPTPVIEQPREETVEPEQVVLPQLDDETPAAPVAEESAPIETKKRPGRRRRRSSAE
As to B3, the binding entry in assay [3] and in assay [4] was “no binding” each time.
